Reference: patent publication US20240067721A1 (UNIVERSITY OF BIRMINGHAM, published 2024)
No constants are given. Whether binding was seen depends on the method and setting. Some results given as binding are weak or reduced against the parent protein; the word gives no strength.

Amino acid sequences for entries named in this document (tags omitted). Residues count along the entry.
UniProt Q9HCN6, residues 22-203: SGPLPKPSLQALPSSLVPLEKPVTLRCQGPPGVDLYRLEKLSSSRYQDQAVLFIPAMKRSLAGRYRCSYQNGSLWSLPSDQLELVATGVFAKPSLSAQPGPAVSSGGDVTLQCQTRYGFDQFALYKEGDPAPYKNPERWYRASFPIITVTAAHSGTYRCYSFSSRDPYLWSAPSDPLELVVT

B1: Nanobody 11 (Nb11) (VHH)
VHH: QVQLQESGGGVVQTGGSLRLSCVASGFSFEDYGIGWFRQAPGKEREGVSYIKNTDGDTTYADSVKGRFTISSDYAKNTVYLQMNDLEPQDAAVYYCAARPPPLNYYSPYLTPREFSYWGQGTQVTVSS
B2: Nanobody 30 (Nb30) (VHH)
VHH: QVQLQESGGGFVQAGGSLRLSCVASGRTFSTYDMGWFRQAPGKEREFVASILIGGGTYYADSVKGRFTISRDNAKNTVYLQMNSLKPEDTAVYYCAYRAPSSGAYYSNQRAYDYWGQGTQVTVSS
B3: Nanobody 53 (Nb53) (VHH)
VHH: QVQLQESGGGLVQAGGSLRISCAASGRTFSDYYMGWFRQAPGKEREFVAAISWSGRTTYYTNSVKGRFTISRDNAKNTLYLQMNNLKPEDTAVYRCAARPSNSGAYFARTHDYTDWGQGTQVTVSS
B4: Nanobody 7 (Nb7) (VHH)
VHH: QVQLQESGGGVVQDGGSLRLSCAASGRTFSSYAMGWFRQAPGKEREFVAAISWSGDSTYSADSVRGRFTISRDNAKNTVYLQMNSLKPEDTAVYYCAADGRNYGLGPLETDSYEYDYWGQGTQVTVSS
B5: Nanobody 18 (Nb18) (VHH)
VHH: QVQLQESGGGLVQAGGSLRLSCAASGFTFDDYAIGWFRQAPGKEREGVSCISSSDGSTYYADSVKGRFTIARDNAKNTVYLQMNSLKPEETAVYYCAASPLYYSGSYCRETEYDYWGQGTQVTVSS
B6: Nanobody 54 (Nb54) (VHH)
VHH: QVQLQESGGGLVQPGGSLRLACAASGSVSSINDMGWYRQAPGKQREFVARISRGGLTNYKDSVKGRFTISRDNAKNQVYLQMNSLKPEDTAVYYCNADFRPSSGTFRLSDYWGQGTQVTVSS
B7: Nanobody 52 (Nb52) (VHH)
VHH: QVQLQESGGGLVQTGASLRLSCAASGSIFSIDTMGWYRQAPGKQRELVAAITRGGSTNYADSVKGRFTISRDNAKNTVYLQMNSLSPEDTAVYYCNANTGRLAVNYEHDYWGQGTQVTVSS

target: recombinant GPVI-Fc (dimeric; D1 and D2 domains of GPVI fused to the Fc domain from IgG) (human) (UniProt Q9HCN6); experiment: solid-phase binding assay: GPVI-Fc coated surface, nanobody 100 nM per the legend (1 µM per paragraph 122), anti-His HRP, Fc-surface signal subtracted, normalised to Nb35 [cont) b]

binding | Binder
binds | B1
binds | B2
binds | B3

target: recombinant GPVI-Fc (dimeric; D1 and D2 domains of GPVI fused to the Fc domain from IgG) (human) (UniProt Q9HCN6); experiment: competition ELISA, His-tagged nanobody (100 nM) on GPVI-Fc (10 nM coat), competitor un-tagged Nb2

binding | Binder
binds | B1
binds | B3

target: recombinant GPVI-Fc (dimeric; D1 and D2 domains of GPVI fused to the Fc domain from IgG) (human) (UniProt Q9HCN6); experiment: surface binding assay on GPVI-Fc coated surface, anti-His HRP, normalised to Nb35

binding | Binder
binds | B4
binds | B5
binds | B6
binds | B7
